Laboratory results reported in paper PMC7181604, “Arabidopsis FHY3 and FAR1 integrate light and strigolactone signaling to regulate branching”.
These are yes or no findings as the source states them, for the method shown. For some assays here: Binding seen in cells or lysates may run through a third protein. Some binding calls cover weakened binding; strength is not graded here. Sequences can lack the tags named with a protein. Blank lines part the entries; values can stand above or below the binder they belong to.

Key:
[1] = target: T1, SPL15 split-luciferase fusion (LCI) (Arabidopsis thaliana) (UniProt Q9M2Q6); assay: split reporter; luciferase complementation imaging (LCI; nLUC/cLUC) in N. benthamiana leaves, 2-3 days after injection at 25 °C, potassium luciferin
T1 sequence: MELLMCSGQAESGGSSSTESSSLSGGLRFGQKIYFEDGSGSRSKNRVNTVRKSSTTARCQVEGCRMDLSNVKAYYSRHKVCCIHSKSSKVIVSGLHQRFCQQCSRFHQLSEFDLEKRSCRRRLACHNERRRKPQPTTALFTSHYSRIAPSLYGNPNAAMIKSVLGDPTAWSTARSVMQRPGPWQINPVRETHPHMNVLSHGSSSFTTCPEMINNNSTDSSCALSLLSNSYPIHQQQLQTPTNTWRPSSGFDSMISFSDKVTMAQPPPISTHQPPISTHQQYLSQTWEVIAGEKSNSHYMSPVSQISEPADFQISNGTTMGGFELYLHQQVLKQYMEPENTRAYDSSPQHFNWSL

[2] = target: T2, SPL9 split-luciferase fusion (LCI) (Arabidopsis thaliana) (UniProt Q700W2); assay: as above
T2 sequence: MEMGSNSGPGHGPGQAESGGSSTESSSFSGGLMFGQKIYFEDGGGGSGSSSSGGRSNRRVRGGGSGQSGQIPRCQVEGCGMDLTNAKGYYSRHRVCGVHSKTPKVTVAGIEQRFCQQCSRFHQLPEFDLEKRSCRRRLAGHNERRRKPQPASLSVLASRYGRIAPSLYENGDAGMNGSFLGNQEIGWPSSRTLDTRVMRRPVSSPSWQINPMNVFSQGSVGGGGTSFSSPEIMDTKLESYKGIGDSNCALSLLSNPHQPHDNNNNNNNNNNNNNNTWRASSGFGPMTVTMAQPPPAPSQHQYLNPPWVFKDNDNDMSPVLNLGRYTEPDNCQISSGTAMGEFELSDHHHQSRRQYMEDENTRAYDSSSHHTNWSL

[3] = target: T3, SPL15 (yeast two-hybrid fusion) (Arabidopsis thaliana) (UniProt Q9M2Q6); assay: two-hybrid; LexA/AD system in yeast strain EGY48 plus H18; SD/-Ura/-Trp/-His, then raffinose, galactose and X-gal for blue color development
T3 sequence: T1 sequence

[4] = target: T4, SPL9 (yeast two-hybrid fusion) (Arabidopsis thaliana) (UniProt Q700W2); assay: as above
T4 sequence: T2 sequence

[5] = target: T5, BRC1 (yeast two-hybrid fusion) (Arabidopsis thaliana) (UniProt A1YKT1); assay: as above
T5 sequence: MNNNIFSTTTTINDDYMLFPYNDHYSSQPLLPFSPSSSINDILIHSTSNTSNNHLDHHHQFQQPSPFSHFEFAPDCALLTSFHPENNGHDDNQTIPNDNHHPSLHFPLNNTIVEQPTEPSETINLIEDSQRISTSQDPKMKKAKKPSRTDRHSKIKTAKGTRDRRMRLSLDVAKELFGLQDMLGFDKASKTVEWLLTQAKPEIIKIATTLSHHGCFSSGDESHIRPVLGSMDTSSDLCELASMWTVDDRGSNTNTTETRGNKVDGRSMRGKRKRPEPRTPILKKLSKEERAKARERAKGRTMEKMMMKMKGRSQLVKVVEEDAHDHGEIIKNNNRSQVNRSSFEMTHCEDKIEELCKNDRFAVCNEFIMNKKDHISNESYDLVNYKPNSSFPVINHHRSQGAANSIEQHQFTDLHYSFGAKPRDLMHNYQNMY

binding [3]: binds
binding [4]: binds
binding [5]: no binding
B3: SMXL6 (yeast two-hybrid fusion) (protein, UniProt Q9LML2 1-979)
chain: MPTPVTTARECLTEEAARALDDAVVVARRRSHAQTTSLHAVSALLAMPSSILREVCVSRAARSVPYSSRLQFRALELCVGVSLDRLPSSKSPATEEDPPVSNSLMAAIKRSQANQRRHPESYHLQQIHASNNGGGGCQTTVLKVELKYFILSILDDPIVNRVFGEAGFRSSEIKLDVLHPPVTQLSSRFSRGRCPPLFLCNLPNSDPNREFPFSGSSGFDENSRRIGEVLGRKDKKNPLLIGNCANEALKTFTDSINSGKLGFLQMDISGLSLISIEKEISEILADGSKNEEEIRMKVDDLGRTVEQSGSKSGIVLNLGELKVLTSEANAALEILVSKLSDLLKHESKQLSFIGCVSSNETYTKLIDRFPTIEKDWDLHVLPITASTKPSTQGVYPKSSLMGSFVPFGGFFSSTSNFRVPLSSTVNQTLSRCHLCNEKYLQEVAAVLKAGSSLSLADKCSEKLAPWLRAIETKEDKGITGSSKALDDANTSASQTAALQKKWDNICQSIHHTPAFPKLGFQSVSPQFPVQTEKSVRTPTSYLETPKLLNPPISKPKPMEDLTASVTNRTVSLPLSCVTTDFGLGVIYASKNQESKTTREKPMLVTLNSSLEHTYQKDFKSLREILSRKVAWQTEAVNAISQIICGCKTDSTRRNQASGIWLALLGPDKVGKKKVAMTLSEVFFGGKVNYICVDFGAEHCSLDDKFRGKTVVDYVTGELSRKPHSVVLLENVEKAEFPDQMRLSEAVSTGKIRDLHGRVISMKNVIVVVTSGIAKDNATDHVIKPVKFPEEQVLSARSWKLQIKLGDATKFGVNKRKYELETAQRAVKVQRSYLDLNLPVNETEFSPDHEAEDRDAWFDEFIEKVDGKVTFKPVDFDELAKNIQEKIGSHFERCFGSETHLELDKEVILQILAASWSSLSSGEEEGRTIVDQWMQTVLARSFAEAKQKYGSNPMLGVKLVASSSGLASGVELPAKVDVIW

binding [1]: binds
binding [2]: binds
B4: SMXL6 split-luciferase fusion (LCI) (protein, UniProt Q9LML2 1-979)
chain: B3 chain

binding [1]: binds
binding [2]: binds
B5: SMXL8 split-luciferase fusion (LCI) (protein, UniProt F4IGZ2 1-910)
chain: MPTAVNVAKQCLTAEASYALEEAVNVARRRGHSQTTSLHAISALLSLPTSVLRDACARVRNSAYSPRLQFKALDLCLSVSLDRIQSGHQLGSDDSPPVSNSLMAAIKRSQAHQRRLPENFRIYQEMSQSQNQNSLSCVKVELRQLILSILDDPVVSRVFGEAGFRSSELKLSIIRPVPHLLRYSSQQPLFLCNLTGNPEPNPVRWGFTVPSLNFNGDLDYRRISAVFTKDKGRNPLLVGVSAYGVLTSYLNSLEKNQTDGMILPTKLHGLTAVNIGSEISDQISVKFDKTYTDTRFHDLGKLAEQGSGPGLLLHYGDLRVFTNGEGNVPAANYIVNRISELLRRHGRRVWLIGATTSNEVYEKMMRRFPNVEKDWDLQLLTITSLKPCLPHNKSSLIGSFVPFGGFFSTTPSELKLPFSGFKTEITGPVSSISDQTQSTLPPWLQMTTRTDLNQKSSAKVVQTKEGLESVCGNKFTSSASASTCSAKSVTTDLNLRVSSVTTGSGLKKHLDSKDFSQPQSVSSYSFDNPRDLNAESFKIIYRRLTDMVSGQDEAARVISCALSQPPKSVTRRDVWLNLVGPDTVGKRRMSLVLAEIVYQSEHRFMAVDLGAAEQGMGGCDDPMRLRGKTMVDHIFEVMCRNPFCVVFLENIEKADEKLQMSLSKAIETGKFMDSHGREVGIGNTIFVMTSSSQGSATTTSYSEEKLLRVKGRQVEIRIETVSSLPMVRSVYGPTSVNKRKLMGLGNLQETKDTVESVKRLNRTTNGVLDLNLPAQETEIEEKYHCEENSNVWLMNLKNHKRLIEVPFKPFDFEGLAEKIKKSVKENFDKCVRSDCLLEVDPKIIERLLAAVYFSDSRKDIKELLENIMSPVFLRIKERYEITTSCVVKLVGRDLDIFLEDQMDLFFVKSQ

The remaining lines, values behind:

B1: FHY3 split-luciferase fusion (LCI) (protein, UniProt Q9LIE5 1-839)
chain: MDIDLRLHSGDLCKGDDEDRGLDNVLHNEEDMDIGKIEDVSVEVNTDDSVGMGVPTGELVEYTEGMNLEPLNGMEFESHGEAYSFYQEYSRAMGFNTAIQNSRRSKTTREFIDAKFACSRYGTKREYDKSFNRPRARQSKQDPENMAGRRTCAKTDCKASMHVKRRPDGKWVIHSFVREHNHELLPAQAVSEQTRKIYAAMAKQFAEYKTVISLKSDSKSSFEKGRTLSVETGDFKILLDFLSRMQSLNSNFFYAVDLGDDQRVKNVFWVDAKSRHNYGSFCDVVSLDTTYVRNKYKMPLAIFVGVNQHYQYMVLGCALISDESAATYSWLMETWLRAIGGQAPKVLITELDVVMNSIVPEIFPNTRHCLFLWHVLMKVSENLGQVVKQHDNFMPKFEKCIYKSGKDEDFARKWYKNLARFGLKDDQWMISLYEDRKKWAPTYMTDVLLAGMSTSQRADSINAFFDKYMHKKTSVQEFVKVYDTVLQDRCEEEAKADSEMWNKQPAMKSPSPFEKSVSEVYTPAVFKKFQIEVLGAIACSPREENRDATCSTFRVQDFENNQDFMVTWNQTKAEVSCICRLFEYKGYLCRHTLNVLQCCHLSSIPSQYILKRWTKDAKSRHFSGEPQQLQTRLLRYNDLCERALKLNEEASLSQESYNIAFLAIEGAIGNCAGINTSGRSLPDVVTSPTQGLISVEEDNHSRSAGKTSKKKNPTKKRKVNPEQDVMPVAAPESLQQMDKLSPRTVGIESYYGTQQSVQGMVQLNLMGPTRDNFYGNQQTMQGLRQLNSIAPSYDSYYGPQQGIHGQGVDFFRPANFSYDIRDDPNVRTTQLHEDASRHS
binding [1]: binds
binding [2]: binds

B2: FAR1 split-luciferase fusion (LCI) (protein, UniProt Q9SWG3 1-827)
chain: MDLQENLVSDAGDDHMVDIVVEPHSNRDIGIVDEFNIGGDVGFSGDLDLEPRNGIDFDTHEAAYIFYQEYAKSMGFTTSIKNSRRSKKTKDFIDAKFACSRYGVTPESESSGSSSRRSTVKKTDCKASMHVKRRPDGKWIIHEFVKDHNHELLPALAYHFRIQRNVKLAEKNNIDILHAVSERTKKMYVEMSRQSGGYKNIGSLLQTDVSSQVDKGRYLALEEGDSQVLLEYFKRIKKENPKFFYAIDLNEDQRLRNLFWADAKSRDDYLSFNDVVSFDTTYVKFNDKLPLALFIGVNHHSQPMLLGCALVADESMETFVWLIKTWLRAMGGRAPKVILTDQDKFLMSAVSELLPNTRHCFALWHVLEKIPEYFSHVMKRHENFLLKFNKCIFRSWTDDEFDMRWWKMVSQFGLENDEWLLWLHEHRQKWVPTFMSDVFLAGMSTSQRSESVNSFFDKYIHKKITLKEFLRQYGVILQNRYEEESVADFDTCHKQPALKSPSPWEKQMATTYTHTIFKKFQVEVLGVVACHPRKEKEDENMATFRVQDCEKDDDFLVTWSKTKSELCCFCRMFEYKGFLCRHALMILQMCGFASIPPQYILKRWTKDAKSGVLAGEGADQIQTRVQRYNDLCSRATELSEEGCVSEENYNIALRTLVETLKNCVDMNNARNNITESNSQLNNGTHEEENQVMAGVKATKKKTVYRKRKGQQEASQMLESQQSLQPMETISSEAMDMNGYYGPQQNVQGLLNLMEPPHEGYYVDQRTIQGLGQLNSIAPAQDSFFTNQQAMSGMVGQIDFRPPPNFTYTLQEEHLSSAQLPGSSSRQL
binding [1]: binds
binding [2]: binds
